Test results reported in PubChem BioAssay AID2685 (National Center for Advancing Translational Sciences (NCATS), 2010).
The other results are listed elsewhere or left out. Further columns of the screen follow, without active or inactive calls. Most of these compounds were active or inconclusive in the main read-out, so they are no random draw. The note in brackets gives the kind of curve behind each potency; many fits are weak.

Experiment: qHTS Assay for Lipid Storage Modulators in Drosophila S3 Cells;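 as to cell number change: cells counted by Cell Tracker Red CMTPX staining in the red channel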
Details: BODIPY lipid droplet fluorescence, 18-24 h; for cell number change: measured here: cell count max response, cells fed with added oleic acid
How it was run: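 Drosophila S3 cells got compounds at several concentrations plus oleic acid (400 uM solution). Laser-scanning cytometry with 488 nm excitation read lipid droplets at 500-530 nm and cells at 575-640 nm. Percent activity was relative to 20 uM Triacsin C.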

[1] = measured here: cell number channel AC50, cells fed with added oleic acid
[2] = measured here: lipid fluorescence (Fed channel) AC50, cells fed with added oleic acid

CCc1ccc2c(c1)cc(CN(C(=S)Nc1ccccc1C)C1CC1)c1nnnn12
AC50 [1]: 0.231 µM [rising, full curve, poor fit]

COc1ccccc1N1N=C(c2ccc([N+](=O)[O-])cc2)CC1c1ccccc1 (configuration not stated)
cell number change: -18.6%
AC50 [1]: 4.11 µM [rising, partial curve]
AC50 [2]: 0.58 µM [falling, full curve]

O=C(Nc1ccc(Cl)c(Cl)c1)C1=Cc2ccccc2OC1
cell number change: -27.7%
AC50 [2]: 0.731 µM [rising, full curve, poor fit]

CCCCN(C(=O)C1CCN(C(=O)c2ccccc2C)CC1)c1c(N)n(CCCC)c(=O)[nH]c1=O
cell number change: 23.4%
AC50 [2]: 0.0651 µM [rising, full curve, poor fit]

O=C(C1CCCN1C(=O)c1cccs1)N1CCN(Cc2ccc3c(c2)OCO3)CC1 (configuration not stated)
AC50 [1]: 6.51 µM [rising, single point]
AC50 [2]: 0.651 µM [rising, full curve]

Cc1ccc2c(Cn3ccnc3)cc(=O)oc2c1C
AC50 [2]: 0.58 µM [rising, single point]

On1c(-c2ccco2)nc2c1CCc1nonc1-2
cell number change: 13.8%
AC50 [1]: 3.66 µM [rising, partial curve, poor fit]

CC(=O)N1c2ccc(S(=O)(=O)N3CCC(C(=O)Nc4cccc(C(F)(F)F)c4)CC3)cc2CC1C (configuration not stated)
cell number change: -10.4%
AC50 [2]: 0.58 µM [falling, single point]

Cc1nn(-c2ccccc2)c(C)c1/C=C1\C(=O)N(C)C(=S)N1C
cell number change: 2.93%
AC50 [1]: 0.164 µM [falling, full curve, poor fit]
AC50 [2]: 6.51 µM [falling, single point]

Cc1cc(C(=O)Nc2ccccn2)no1
cell number change: -6.98%
AC50 [1]: 6.51 µM [falling, single point]

CC1CCCCN1S(=O)(=O)c1ccc(NC(=O)c2cccc(-n3cnnn3)c2)cc1 (configuration not stated)
cell number change: -5.02%

Cc1nn2c(N)c(C#N)cnc2c1-c1ccc(Cl)cc1
cell number change: -9.18%
AC50 [1]: 0.82 µM [rising, full curve, poor fit]
AC50 [2]: 0.82 µM [rising, full curve]

C/C(=N\NC(N)=O)C1CC(Cc2ccccc2)C(=O)O1 (configuration not stated)
cell number change: -17%

COc1ccc(OC)c(-c2cc(C(=O)NCc3ccco3)no2)c1
cell number change: 0.893%

Cc1cc(C(=O)NCc2cccnc2)n(-c2ccccc2)n1
cell number change: -30.2%
AC50 [1]: 29.1 µM [falling, single point]

CCNC(=O)NC(=O)CSc1ccccc1F
cell number change: -13.6%
AC50 [2]: 0.0326 µM [falling, full curve, poor fit]

CCC(O)C1CCN(C(=O)c2cc(COc3ccc(F)cc3F)on2)CC1 (configuration not stated)
cell number change: -35.7%
AC50 [1]: 32.6 µM [falling, single point]
AC50 [2]: 9.2 µM [rising, partial curve, poor fit]

Cc1csc2nc(CSc3ccc(Cl)cc3)cn12
AC50 [2]: 2.06 µM [rising, single point]

CCOC(=O)C(CCC(C)=O)C(=O)c1ccccc1 (configuration not stated)
cell number change: 11%
AC50 [2]: 5.8 µM [rising, full curve]

NC(=O)SC/C(=N\S(=O)(=O)c1ccccc1)Nc1ccccc1
cell number change: 5.7%
AC50 [2]: 1.46 µM [falling, full curve]

Cc1nc(SCc2c(F)cccc2Cl)n[nH]1
cell number change: 11.9%
AC50 [2]: 20.6 µM [rising, single point]

CCN(CC)c1ccc(/C=N/Nc2nc3ccccc3[nH]2)cc1
cell number change: -73.4%
AC50 [1]: 5.8 µM [falling, full curve]
AC50 [2]: 2.59 µM [falling, full curve]

O=C(C1CCCCC1)N1CCC(n2nnc3ccccc32)CC1
cell number change: 19.6%
AC50 [2]: 5.8 µM [rising, full curve, poor fit]

CCC1CCc2c(sc(NC(=O)c3ccoc3C)c2C(N)=O)C1 (configuration not stated)
cell number change: -42.9%
AC50 [1]: 29.1 µM [falling, single point]

Cc1ccc(S(=O)(=O)NC2=NCN(Cc3ccccc3)CN2)cc1
cell number change: -4.96%
AC50 [2]: 23.1 µM [falling, partial curve]

CC(=O)c1ccc(NC(=O)CSc2nc(C3CC3)nc3ccccc23)cc1
cell number change: 153%
AC50 [1]: 29.1 µM [rising, single point]

COc1ccc2nc3sc(C(=O)NCc4cccs4)c(N)c3cc2c1
cell number change: -34.9%
AC50 [1]: 4.11 µM [falling, full curve]
AC50 [2]: 4.11 µM [falling, single point]

COC(=O)C(NC(=O)C(CC(C)C)NC(=O)C1CCC(C)CC1)C(C)C (configuration not stated)
cell number change: 17.5%

Cc1ccc(NS(=O)(=O)c2cc(NC(=O)c3ccc4c(c3)NC(=O)CS4)ccc2C)c(C)c1
cell number change: 81.5%

Cc1ccc(C)n1C(Cc1ccccc1)C(=O)O (configuration not stated)
cell number change: 2.01%
AC50 [1]: 1.84 µM [rising, partial curve]

C/C=C/C(=O)OCC(=O)NC(=O)NC(C)C
cell number change: -36.7%
AC50 [1]: 0.00461 µM [falling, full curve, poor fit]
AC50 [2]: 25.9 µM [falling, partial curve]

Cc1ccccc1C1=NC(c2ccc(F)cc2F)ON1 (configuration not stated)
cell number change: 18.9%
AC50 [2]: 6.51 µM [rising, single point]

Cc1cc(C(C)(C)C)oc1C(=O)N1CCN(C(=O)c2oc(C(C)(C)C)cc2C)CC1
cell number change: -9.59%
AC50 [2]: 18.4 µM [falling, single point]

Cc1cccc(-n2cc(C(=O)O)c(=O)cc2C)c1
AC50 [1]: 0.58 µM [falling, single point]
AC50 [2]: 0.58 µM [falling, single point]

COc1ccc2c3c([nH]c2c1)C(C)N(CCC(=O)NN)CC3 (configuration not stated)
cell number change: 31.6%
AC50 [2]: 6.51 µM [rising, single point]

S=C(c1ccc2c(c1)OCO2)N1CCCCCC1
cell number change: 5.34%
AC50 [1]: 3.66 µM [falling, single point]
AC50 [2]: 6.51 µM [falling, single point]

Cc1c(/C=C/C(=O)c2ccc(Cl)s2)cnn1C
cell number change: -26%
AC50 [2]: 29.1 µM [falling, single point]

CCOc1ccc(N(C(C)C(=O)N/N=C(\C)C(C)(C)C)S(C)(=O)=O)cc1 (configuration not stated)
cell number change: 1.36%
AC50 [2]: 1.64 µM [falling, partial curve]

COc1ccc(Cc2nnc(NC(=O)CSc3ccc(C)cc3)s2)cc1
cell number change: -33.3%
AC50 [1]: 1.84 µM [falling, single point]
AC50 [2]: 4.61 µM [falling, full curve, poor fit]

CCCn1c(=O)[nH]c(=O)c2c(C(=O)OCC)cc(-c3cccs3)nc21
AC50 [2]: 0.231 µM [falling, partial curve, poor fit]

Cc1nn(-c2ccccc2)c(Cl)c1C(=O)NC1CCCCC1
cell number change: 1.62%
AC50 [2]: 18.4 µM [rising, single point]

CC1CCN(S(=O)(=O)c2ccc(NC(=O)CCN3C(=O)c4ccccc4C3=O)cc2)CC1
cell number change: -36.5%
AC50 [1]: 0.517 µM [falling, full curve, poor fit]
AC50 [2]: 7.31 µM [falling, partial curve]

COc1cc(/C=C/C(=O)OCC(=O)Nc2ccc(S(N)(=O)=O)cc2)ccc1O
cell number change: 11.1%
AC50 [2]: 0.92 µM [rising, full curve, poor fit]

O=C(OCCN1C(=O)c2ccccc2C1=O)c1cnccn1
cell number change: 8.12%
AC50 [2]: 0.517 µM [rising, full curve]

CSc1ccc(Cl)c(C(=O)NNC(=O)c2csc(N3CCOCC3)n2)c1
cell number change: -21.5%

O=S(=O)(c1ccc(Cl)cc1)N1CCCC(c2nc(-c3ccc(F)cc3)no2)C1 (configuration not stated)
cell number change: -13.5%
AC50 [2]: 29.1 µM [falling, single point]

Cc1ccc(CNC(=O)C2CCC(=O)N2C(C)C)cc1 (configuration not stated)
cell number change: 25.5%
AC50 [2]: 8.2 µM [rising, partial curve]

O=C(Nc1ccccc1N1CCOCC1)c1ccc2c(c1)OCO2
cell number change: 2.79%

Cc1ccc(C(C(=O)NC(C)(C)C)N(Cc2ccc3c(c2)OCO3)C(=O)c2ccc(CN3CCOCC3)o2)o1 (configuration not stated)
cell number change: -39.1%
AC50 [1]: 16.4 µM [falling, partial curve]
AC50 [2]: 9.2 µM [falling, partial curve]

CCc1ccc(OCC(=O)Oc2ccc([N+](=O)[O-])cc2)cc1
cell number change: -0.293%
AC50 [2]: 29.1 µM [rising, single point]

COc1ccc(-n2c(=S)[nH]c3cc(C(=O)NCc4cccnc4)ccc3c2=O)cc1
cell number change: 23.5%

O=C(CCc1ccccc1)Nc1cccc(-c2nnc(-c3ccco3)o2)c1
cell number change: 55.3%

O=C(Nc1ccc(S(=O)(=O)Nc2cnc3ccccc3n2)cc1)c1cc(F)c(F)cc1Cl
cell number change: -10.3%

COCCNc1nc(N2CCCCC2)c2cnn(C)c2n1
cell number change: -18.8%

COCCN(C(=O)CCSc1ccc(F)cc1)c1c(N)n(Cc2ccccc2)c(=O)[nH]c1=O
cell number change: 0.259%
AC50 [2]: 0.517 µM [falling, single point]

O=C1C(Cl)=C(NCCCO)C(=O)c2ccccc21
cell number change: -8.48%

CC(OC(=O)c1ccccc1NCCO)C(=O)Nc1ccnn1C(C)C (configuration not stated)
cell number change: -1.17%
AC50 [2]: 0.0116 µM [falling, full curve, poor fit]

Cc1cccc(C)c1NC(=S)N(CCN(C)C)C(C)c1cccnc1 (configuration not stated)
cell number change: 18.9%
AC50 [1]: 0.651 µM [rising, full curve, poor fit]
AC50 [2]: 0.116 µM [rising, full curve, poor fit]

O=C(Nc1ccc(C(=O)O)cc1)/C(=C\c1ccc2c(c1)OCO2)NC(=O)c1ccco1
cell number change: -7.05%
AC50 [1]: 0.206 µM [falling, full curve, poor fit]

COc1ccc(F)cc1C(=O)C1CCCN(C(=O)C2=C(C)OCCO2)C1 (configuration not stated)
cell number change: -32.3%
AC50 [1]: 29.1 µM [falling, single point]
AC50 [2]: 32.6 µM [falling, single point]
